Reference: paper PMC11574364
The exact form of at least one protein or probe is not confirmed. For part of these data: Tags and fusion partners may be left off the protein sequences shown.

Amino acid sequences for entries named in this document (tags omitted). A change or cut given only in a name is not applied to a line headed by its entry.
UniProt Q8IV13: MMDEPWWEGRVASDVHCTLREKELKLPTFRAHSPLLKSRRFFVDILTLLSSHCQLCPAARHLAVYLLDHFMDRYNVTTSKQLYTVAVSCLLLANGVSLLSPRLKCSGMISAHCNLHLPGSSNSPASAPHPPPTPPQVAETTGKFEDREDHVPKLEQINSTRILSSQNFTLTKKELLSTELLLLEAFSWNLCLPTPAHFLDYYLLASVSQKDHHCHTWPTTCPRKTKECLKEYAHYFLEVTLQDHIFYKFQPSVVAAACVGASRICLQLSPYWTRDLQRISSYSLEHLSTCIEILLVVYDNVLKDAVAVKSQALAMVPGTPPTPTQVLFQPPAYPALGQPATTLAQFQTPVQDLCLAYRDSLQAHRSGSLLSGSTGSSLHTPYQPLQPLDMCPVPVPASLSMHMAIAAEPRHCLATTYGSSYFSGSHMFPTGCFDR
UniProt Q96HA8: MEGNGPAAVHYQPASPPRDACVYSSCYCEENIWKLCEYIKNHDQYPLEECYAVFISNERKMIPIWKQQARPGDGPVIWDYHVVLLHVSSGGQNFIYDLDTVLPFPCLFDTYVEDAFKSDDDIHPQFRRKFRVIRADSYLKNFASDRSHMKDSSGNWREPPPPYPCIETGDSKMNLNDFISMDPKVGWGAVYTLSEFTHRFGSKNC
UniProt Q15691: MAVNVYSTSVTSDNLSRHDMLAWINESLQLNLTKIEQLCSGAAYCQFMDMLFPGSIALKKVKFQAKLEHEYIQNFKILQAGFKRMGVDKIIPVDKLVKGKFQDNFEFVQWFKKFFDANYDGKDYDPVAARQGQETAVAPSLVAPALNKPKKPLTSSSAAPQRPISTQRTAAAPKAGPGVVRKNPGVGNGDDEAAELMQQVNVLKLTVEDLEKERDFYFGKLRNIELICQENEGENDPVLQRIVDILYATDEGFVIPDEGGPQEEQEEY

Legend:
Experiment in all cases: human ORF protein microarray
CRABP2 (Homo sapiens) = biological target: T1, CRABP2 (Homo sapiens) (UniProt P29373); conditions: 5' phosphate; Domain array: 20 mM Tris-HCl pH 7.4, 200 mM KCl, 0.2 mM EDTA, 0.05% NP40, 2 ug/ul heparin, overnight 4 C. ORF array: PBS pH 7.0 with RNase inhibitor, 100 ng RNA, 1 h.; recombinant protein; protein details: N-terminal GST-6xHis; label: internal DY647 at G18; letters put together from the description
T1 sequence (looked up, limits assumed): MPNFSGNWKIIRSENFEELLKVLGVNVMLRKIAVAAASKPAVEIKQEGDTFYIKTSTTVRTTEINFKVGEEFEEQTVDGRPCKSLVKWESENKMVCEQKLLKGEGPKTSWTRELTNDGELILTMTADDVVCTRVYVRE

ZNF266 (Homo sapiens) = biological target: T2, ZNF266 (Homo sapiens) (UniProt Q14584); conditions: 5' phosphate; Domain array: 20 mM Tris-HCl pH 7.4, 200 mM KCl, 0.2 mM EDTA, 0.05% NP40, 2 ug/ul heparin, overnight 4 C. ORF array: PBS pH 7.0 with RNase inhibitor, 100 ng RNA, 1 h.; recombinant protein; protein details: N-terminal GST-6xHis; label: internal DY647 at G18; letters put together from the description
T2 sequence (looked up, limits assumed): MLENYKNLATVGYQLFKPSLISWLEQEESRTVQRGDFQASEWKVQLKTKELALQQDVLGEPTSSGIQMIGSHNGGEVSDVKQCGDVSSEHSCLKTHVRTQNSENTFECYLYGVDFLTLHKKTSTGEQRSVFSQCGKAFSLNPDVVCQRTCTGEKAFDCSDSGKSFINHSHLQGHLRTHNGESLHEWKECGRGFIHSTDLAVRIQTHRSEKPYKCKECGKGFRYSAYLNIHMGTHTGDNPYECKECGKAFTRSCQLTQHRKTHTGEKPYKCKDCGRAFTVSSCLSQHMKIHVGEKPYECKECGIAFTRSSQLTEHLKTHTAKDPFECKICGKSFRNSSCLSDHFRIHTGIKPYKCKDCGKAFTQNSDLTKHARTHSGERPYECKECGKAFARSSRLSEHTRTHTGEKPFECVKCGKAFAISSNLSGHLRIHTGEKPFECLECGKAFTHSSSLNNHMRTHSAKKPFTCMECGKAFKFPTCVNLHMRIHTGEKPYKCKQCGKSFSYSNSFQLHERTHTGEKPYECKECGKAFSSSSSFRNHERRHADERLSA

CXorf26 (Homo sapiens) = biological target: T3, CXorf26 (Homo sapiens) (UniProt Q9BVG4); conditions: 5' phosphate; Domain array: 20 mM Tris-HCl pH 7.4, 200 mM KCl, 0.2 mM EDTA, 0.05% NP40, 2 ug/ul heparin, overnight 4 C. ORF array: PBS pH 7.0 with RNase inhibitor, 100 ng RNA, 1 h.; recombinant protein; protein details: N-terminal GST-6xHis; label: internal DY647 at G18; letters put together from the description
T3 sequence (looked up, limits assumed): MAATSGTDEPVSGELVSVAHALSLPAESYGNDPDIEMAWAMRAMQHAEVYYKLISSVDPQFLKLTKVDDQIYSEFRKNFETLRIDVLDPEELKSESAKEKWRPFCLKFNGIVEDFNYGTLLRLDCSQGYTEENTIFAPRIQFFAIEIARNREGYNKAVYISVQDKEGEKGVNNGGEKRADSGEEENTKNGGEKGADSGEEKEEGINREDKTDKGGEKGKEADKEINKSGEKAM

SPRY1 (Homo sapiens) = biological target: T4, SPRY1 (Homo sapiens) (UniProt O43609); conditions: 5' phosphate; Domain array: 20 mM Tris-HCl pH 7.4, 200 mM KCl, 0.2 mM EDTA, 0.05% NP40, 2 ug/ul heparin, overnight 4 C. ORF array: PBS pH 7.0 with RNase inhibitor, 100 ng RNA, 1 h.; recombinant protein; protein details: N-terminal GST-6xHis; label: internal DY647 at G18; letters put together from the description
T4 sequence (looked up, limits assumed): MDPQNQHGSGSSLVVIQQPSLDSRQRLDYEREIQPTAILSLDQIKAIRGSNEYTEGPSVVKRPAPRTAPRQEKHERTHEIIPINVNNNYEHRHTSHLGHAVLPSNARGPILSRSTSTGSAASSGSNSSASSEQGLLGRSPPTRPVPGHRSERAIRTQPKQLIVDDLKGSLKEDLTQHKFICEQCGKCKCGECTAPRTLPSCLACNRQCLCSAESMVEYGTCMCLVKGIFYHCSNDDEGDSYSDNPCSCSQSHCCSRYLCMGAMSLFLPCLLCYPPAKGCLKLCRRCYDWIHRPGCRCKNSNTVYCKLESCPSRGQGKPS

CCNJL (Homo sapiens) = CCNJL (Homo sapiens) (UniProt Q8IV13); conditions: 5' phosphate; Domain array: 20 mM Tris-HCl pH 7.4, 200 mM KCl, 0.2 mM EDTA, 0.05% NP40, 2 ug/ul heparin, overnight 4 C. ORF array: PBS pH 7.0 with RNase inhibitor, 100 ng RNA, 1 h.; recombinant protein; protein details: N-terminal GST-6xHis; label: internal DY647 at G18; letters put together from the description
C8orf32 (Homo sapiens) = C8orf32 (Homo sapiens) (UniProt Q96HA8); conditions: 5' phosphate; amino-C6 U at position 18; Domain array: 20 mM Tris-HCl pH 7.4, 200 mM KCl, 0.2 mM EDTA, 0.05% NP40, 2 ug/ul heparin, overnight 4 C. ORF array: PBS pH 7.0 with RNase inhibitor, 100 ng RNA, 1 h.; recombinant protein; protein details: N-terminal GST-6xHis; label: internal Cy5 or DY647
MAPRE1 (Homo sapiens) = MAPRE1 (Homo sapiens) (UniProt Q15691); conditions: 5' phosphate; amino-C6 U at position 18; Domain array: 20 mM Tris-HCl pH 7.4, 200 mM KCl, 0.2 mM EDTA, 0.05% NP40, 2 ug/ul heparin, overnight 4 C. ORF array: PBS pH 7.0 with RNase inhibitor, 100 ng RNA, 1 h.; recombinant protein; protein details: N-terminal GST-6xHis; label: internal Cy5 or DY647
OR4K5 (Homo sapiens) = biological target: T5, OR4K5 (Homo sapiens) (UniProt Q8NGD3); conditions: 5' phosphate; amino-C6 U at position 18; Domain array: 20 mM Tris-HCl pH 7.4, 200 mM KCl, 0.2 mM EDTA, 0.05% NP40, 2 ug/ul heparin, overnight 4 C. ORF array: PBS pH 7.0 with RNase inhibitor, 100 ng RNA, 1 h.; recombinant protein; protein details: N-terminal GST-6xHis; label: internal Cy5 or DY647
T5 sequence (looked up, limits assumed): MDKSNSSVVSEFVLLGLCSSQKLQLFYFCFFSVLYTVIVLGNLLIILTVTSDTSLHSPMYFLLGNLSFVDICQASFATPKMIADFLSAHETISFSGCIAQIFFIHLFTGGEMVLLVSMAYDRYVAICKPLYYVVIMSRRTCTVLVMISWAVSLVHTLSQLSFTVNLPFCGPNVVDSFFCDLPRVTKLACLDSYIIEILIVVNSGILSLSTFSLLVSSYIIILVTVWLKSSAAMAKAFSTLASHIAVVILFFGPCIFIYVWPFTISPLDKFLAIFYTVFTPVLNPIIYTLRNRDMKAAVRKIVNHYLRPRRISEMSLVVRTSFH

ACO2 (Homo sapiens) = biological target: T6, ACO2 (Homo sapiens) (UniProt Q99798); conditions: 5' phosphate; amino-C6 U at position 18; Domain array: 20 mM Tris-HCl pH 7.4, 200 mM KCl, 0.2 mM EDTA, 0.05% NP40, 2 ug/ul heparin, overnight 4 C. ORF array: PBS pH 7.0 with RNase inhibitor, 100 ng RNA, 1 h.; recombinant protein; protein details: N-terminal GST-6xHis; label: internal Cy5 or DY647
T6 sequence (looked up, limits assumed): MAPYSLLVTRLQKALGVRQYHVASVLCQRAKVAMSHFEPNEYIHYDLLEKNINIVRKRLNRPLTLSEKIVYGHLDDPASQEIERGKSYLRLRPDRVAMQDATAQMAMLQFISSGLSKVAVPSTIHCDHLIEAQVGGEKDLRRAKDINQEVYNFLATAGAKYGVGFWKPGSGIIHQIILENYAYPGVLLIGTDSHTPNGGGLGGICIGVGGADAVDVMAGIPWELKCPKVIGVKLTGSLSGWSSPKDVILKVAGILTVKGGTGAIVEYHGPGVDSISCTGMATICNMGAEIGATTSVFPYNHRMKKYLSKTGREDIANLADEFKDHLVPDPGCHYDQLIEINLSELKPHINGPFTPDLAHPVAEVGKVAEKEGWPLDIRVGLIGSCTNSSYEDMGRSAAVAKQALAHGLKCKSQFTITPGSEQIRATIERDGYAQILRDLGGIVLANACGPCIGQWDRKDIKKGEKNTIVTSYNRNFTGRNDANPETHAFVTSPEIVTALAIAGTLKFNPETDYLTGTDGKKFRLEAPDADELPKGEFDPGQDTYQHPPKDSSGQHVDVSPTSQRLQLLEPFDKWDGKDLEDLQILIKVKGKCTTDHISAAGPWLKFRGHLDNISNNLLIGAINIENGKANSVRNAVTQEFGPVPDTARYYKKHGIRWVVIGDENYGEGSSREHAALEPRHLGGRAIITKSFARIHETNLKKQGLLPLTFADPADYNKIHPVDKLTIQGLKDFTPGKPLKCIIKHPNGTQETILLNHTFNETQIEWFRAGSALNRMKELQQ

Measured: binding result

CAGUGCAAUGAUGAAAGGGCAU [miR-130b (internal labeling)]
binds: CRABP2 (Homo sapiens) | ZNF266 (Homo sapiens) | CXorf26 (Homo sapiens)

UAGCUUAUCAGACUGAUGUUGA [miR-21 (internal labeling)]
binds: SPRY1 (Homo sapiens) | CCNJL (Homo sapiens)

UGAGGUAGUAGGUUGUGUGGUU [let-7b (internal labeling)]
binds: C8orf32 (Homo sapiens) | MAPRE1 (Homo sapiens) | OR4K5 (Homo sapiens) | ACO2 (Homo sapiens)
